Laboratory results from PubChem BioAssay AID250 (DTP/NCI, 2004).
The list is a part of this screen's results and no random one: it is rich in T/C values a quarter to a half above the control, in often repeated tests (any T/C) and in doses without a T/C. Other doses and runs of a compound stand elsewhere. T/C: endpoint of the treated group in % of that of the vehicle group. Some entries give survivors of the animals treated and no T/C: the source files T/C as zero there, which appears to mark a toxic dose or a test without result, not a measured value. Some doses without a T/C left all or most animals alive at the check, yet need not have been tolerated: survival well below the control is almost never listed, so the zero probably covers shortened survival too. Counts of survivors are from the toxicity check (mostly the fifth day) where no day follows; animals may have died later. Schedule codes are those of the source, taken here to give the interval after Q, in days (D) or hours (H), and the number of doses after X. Some schedule codes hold Z or #, which are not explained here. For survival time, the PubChem record calls one and a half times the control and up active, and a quarter to a half above the control has no call in these data; cut-offs in other NCI protocols can differ. Brackets with × give the number of equal values in this list. Some entries hold several experiments; the results are listed from low to high.

Test system: BDF1 mice, L1210 leukemia sc, survival T/C
Test: NCI In Vivo Anticancer Drug Screen. Data for tumor model L1210 Leukemia (subcutaneous) in B6D2F1 (BDF1) mice
Details: T/C endpoint: median survival time, vehicle: saline, higher T/C = longer survival
Procedure, shortened: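 Antitumor activity is assessed in mice with transplanted tumors by comparing the treated group (T) with the vehicle control group (C).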

## O=P1(N(CCCl)CCCl)NCCCO1 (stereo unspecified)
dose: 108.0 mg/kg/injection, schedule: Q01DX001 (sc), run until all animals had died
  T/C: 109 and 170 % of control
dose: 108.0 mg/kg/injection, schedule: Q01DX Z (sc), evaluated on day 34
  T/C: 205 and 237 % of control
dose: 108.0 mg/kg/injection, schedule: Q01DX Z (sc), evaluated on day 40
  T/C: 170 % of control
dose: 108.0 mg/kg/injection, schedule: Q01DX Z (sc), run until all animals had died
  T/C: 150, 155 (2×), 194, 211, 225 % of control
dose: 108.0 mg/kg/injection, schedule: Q01HX002 (ip)
  survivor count: 7 of 8
dose: 108.0 mg/kg/injection, schedule: Q07DX003 (sc), evaluated on day 6
  T/C: 214 and 245 % of control
dose: 108.0 mg/kg/injection, schedule: Q07DX003 (sc), evaluated on day 7
  T/C: 153, 183, 195, 204, 215, 268, 279 % of control
dose: 108.0 mg/kg/injection, schedule: Q07DX003 (sc), evaluated on day 30
  T/C: 153, 204, 273 % of control
dose: 108.0 mg/kg/injection, schedule: Q07DX003 (sc), evaluated on day 33
  T/C: 245 % of control
dose: 108.0 mg/kg/injection, schedule: Q07DX003 (sc), evaluated on day 35
  T/C: 222 % of control
dose: 108.0 mg/kg/injection, schedule: Q07DX003 (sc), evaluated on day 36
  T/C: 216 % of control
dose: 108.0 mg/kg/injection, schedule: Q07DX003 (sc), evaluated on day 40
  T/C: 100 % of control
dose: 108.0 mg/kg/injection, schedule: Q07DX003 (sc), evaluated on day 45
  T/C: 195 and 242 % of control
dose: 108.0 mg/kg/injection, schedule: Q08DX002 (sc), evaluated on day 7
  T/C: 158 and 239 % of control
dose: 108.0 mg/kg/injection, schedule: Q08DX002 (sc), evaluated on day 32
  T/C: 155 % of control
dose: 108.0 mg/kg/injection, schedule: Q08DX002 (sc), evaluated on day 36
  T/C: 233 % of control
dose: 108.0 mg/kg/injection, schedule: Q08DX003 (ip)
  survivor count: 7 of 8
dose: 180.0 mg/kg/injection, schedule: Q01DX001 (sc), evaluated on day 6
  T/C: 223 % of control
dose: 180.0 mg/kg/injection, schedule: Q01DX001 (sc), evaluated on day 7
  T/C: 182, 202, 221, 234 % of control
dose: 180.0 mg/kg/injection, schedule: Q01DX001 (sc), evaluated on day 30
  T/C: 182 and 221 % of control
dose: 180.0 mg/kg/injection, schedule: Q01DX001 (sc), evaluated on day 32
  T/C: 200 % of control
dose: 180.0 mg/kg/injection, schedule: Q01DX001 (sc), evaluated on day 33
  T/C: 225 and 244 % of control
dose: 180.0 mg/kg/injection, schedule: Q01DX001 (sc), evaluated on day 35
  T/C: 205 % of control
dose: 180.0 mg/kg/injection, schedule: Q01DX001 (sc), evaluated on day 36
  T/C: 222 % of control
dose: 180.0 mg/kg/injection, schedule: Q01DX001 (sc), evaluated on day 40
  T/C: 195 % of control
dose: 180.0 mg/kg/injection, schedule: Q01DX001 (sc), run until all animals had died
  T/C: 195 and 205 % of control
dose: 180.0 mg/kg/injection, schedule: Q01DX Z (sc), evaluated on day 34
  T/C: 187 % of control
dose: 180.0 mg/kg/injection, schedule: Q01DX Z (sc), evaluated on day 36
  T/C: 100 % of control
dose: 180.0 mg/kg/injection, schedule: Q01DX Z (sc), evaluated on day 60
  T/C: 154 % of control
dose: 180.0 mg/kg/injection, schedule: Q01DX Z (sc)
  survivor count: 8 of 10
dose: 180.0 mg/kg/injection, schedule: Q01HX002 (ip)
  survivor count: 8 of 8
dose: 180.0 mg/kg/injection, schedule: Q07DX003 (sc), evaluated on day 6
  T/C: 303 and 313 % of control
dose: 180.0 mg/kg/injection, schedule: Q07DX003 (sc), evaluated on day 7
  T/C: 156, 176, 188, 244, 326, 385 % of control
dose: 180.0 mg/kg/injection, schedule: Q07DX003 (sc), evaluated on day 30
  T/C: 156, 176, 189 % of control
dose: 180.0 mg/kg/injection, schedule: Q07DX003 (sc), evaluated on day 33
  T/C: 305 % of control
dose: 180.0 mg/kg/injection, schedule: Q07DX003 (sc), evaluated on day 35
  T/C: 200 % of control
dose: 180.0 mg/kg/injection, schedule: Q07DX003 (sc), evaluated on day 36
  T/C: 316 % of control
dose: 180.0 mg/kg/injection, schedule: Q07DX003 (sc), evaluated on day 40
  T/C: 180 % of control
dose: 180.0 mg/kg/injection, schedule: Q07DX003 (sc), evaluated on day 45
  T/C: 378 % of control
dose: 180.0 mg/kg/injection, schedule: Q08DX002 (sc), evaluated on day 7
  T/C: 285 % of control (2×)
dose: 180.0 mg/kg/injection, schedule: Q08DX002 (sc), evaluated on day 32
  T/C: 283 % of control
dose: 180.0 mg/kg/injection, schedule: Q08DX002 (sc), evaluated on day 36
  T/C: 288 % of control
dose: 180.0 mg/kg/injection, schedule: Q08DX003 (ip)
  survivor count: 8 of 8
dose: 200.0 mg/kg/injection, schedule: Q01DX001 (sc), evaluated on day 7
  T/C: 174, 176, 197, 216, 220, 221, 222, 225, 226, 231 % of control (2×)
dose: 200.0 mg/kg/injection, schedule: Q01DX001 (sc), evaluated on day 9
  T/C: 207 % of control
dose: 200.0 mg/kg/injection, schedule: Q01DX001 (sc), evaluated on day 21
  T/C: 175 % of control
dose: 200.0 mg/kg/injection, schedule: Q01DX001 (sc), evaluated on day 31
  T/C: 216 % of control
dose: 200.0 mg/kg/injection, schedule: Q01DX001 (sc), evaluated on day 32
  T/C: 195 % of control
dose: 200.0 mg/kg/injection, schedule: Q01DX001 (sc), evaluated on day 34
  T/C: 170 and 222 % of control
dose: 200.0 mg/kg/injection, schedule: Q01DX001 (sc), evaluated on day 36
  T/C: 227 % of control
dose: 200.0 mg/kg/injection, schedule: Q01DX001 (sc), evaluated on day 37
  T/C: 222 % of control
dose: 200.0 mg/kg/injection, schedule: Q01DX001 (sc), evaluated on day 40
  T/C: 227 % of control
dose: 200.0 mg/kg/injection, schedule: Q01DX001 (sc), evaluated on day 43
  T/C: 222 and 226 % of control
dose: 200.0 mg/kg/injection, schedule: Q01DX001 (sc), evaluated on day 60
  T/C: 200 and 238 % of control
dose: 200.0 mg/kg/injection, schedule: Q01DX001 (sc), run until all animals had died
  T/C: 195 % of control
dose: 200.0 mg/kg/injection, schedule: Q08DX002 (sc), evaluated on day 7
  T/C: 180, 282, 301, 313, 344 % of control
dose: 200.0 mg/kg/injection, schedule: Q08DX002 (sc), evaluated on day 21
  T/C: 175 % of control
dose: 200.0 mg/kg/injection, schedule: Q08DX002 (sc), evaluated on day 34
  T/C: 275 % of control
dose: 200.0 mg/kg/injection, schedule: Q08DX002 (sc), evaluated on day 36
  T/C: 300 % of control
dose: 200.0 mg/kg/injection, schedule: Q08DX002 (sc), evaluated on day 37
  T/C: 316 % of control
dose: 200.0 mg/kg/injection, schedule: Q08DX002 (sc), evaluated on day 43
  T/C: 333 % of control
